Reference: patent publication US20230080534A1, “SEMG2 ANTIBODY AND USE THEREOF” (SHANGHAI BIOTROY BIOTECHNIQUE CO., LTD., priority 2020, published 2023)
Results are given in words; binding and its absence hold for the method and conditions named. For some assays here: Binding seen in cells or lysates may run through a third protein. Some entries that bind do so weakly or less than the wild type. For some assays here: Where a sequence is shown, tags or fusion partners need not be part of it.

The chains behind the UniProt entries cited, without tags or fusion partners. Residues count along the entry.
UniProt P41272, residues 24-250: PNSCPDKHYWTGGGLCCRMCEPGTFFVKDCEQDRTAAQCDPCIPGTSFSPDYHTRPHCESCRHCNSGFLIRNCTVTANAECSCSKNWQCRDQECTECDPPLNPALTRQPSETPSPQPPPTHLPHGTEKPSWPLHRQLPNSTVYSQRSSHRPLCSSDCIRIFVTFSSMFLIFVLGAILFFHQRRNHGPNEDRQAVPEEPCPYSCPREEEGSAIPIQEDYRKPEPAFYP

Tests used:
[1] = biological target: human CD27 (HA-tagged, expressed in HEK293 cells) (human) (UniProt P26842); experiment: co-immunoprecipitation with Flag antibody, HEK293 co-transfection
[2] = biological target: mouse CD27 (expressed in HEK293 cells) (mouse) (UniProt P41272); experiment: as above
[3] = biological target: human CD27 (HA-tagged, expressed in HEK293 cells) (human) (UniProt P26842); experiment: co-immunoprecipitation (FIG. 1, upper panel)
[4] = biological target: mouse CD27 (expressed in HEK293 cells) (mouse) (UniProt P41272); experiment: co-immunoprecipitation (FIG. 1, lower panel)
[5] = biological target: human SEMG2 full-length protein (human) (UniProt Q02383); experiment: ELISA, SEMG2 in microplate, CD27 titrated (FIG. 2B)
[6] = biological target: human CD27 (HA-tagged, expressed in HEK293 cells) (human) (UniProt P26842); experiment: co-immunoprecipitation, HEK293 co-transfection
[7] = biological target: mouse CD27 (expressed in HEK293 cells) (mouse) (UniProt P41272); experiment: co-immunoprecipitation, HEK293 co-transfection
[8] = biological target: human CD27 (HA-tagged, expressed in HEK293 cells) (human) (UniProt P26842); experiment: co-immunoprecipitation (FIG. 3)
[9] = biological target: human CD27 (HA-tagged, expressed in HEK293 cells) (human) (UniProt P26842); experiment: co-immunoprecipitation (FIG. 4, left panel)
[10] = biological target: mouse CD27 (expressed in HEK293 cells) (mouse) (UniProt P41272); experiment: co-immunoprecipitation (FIG. 4, right panel)
[11] = biological target: T1, CD27 protein (ELISA, form not stated) (UniProt P26842); experiment: ELISA, HEK293-expressed full-length SEMG2
T1 sequence (looked up): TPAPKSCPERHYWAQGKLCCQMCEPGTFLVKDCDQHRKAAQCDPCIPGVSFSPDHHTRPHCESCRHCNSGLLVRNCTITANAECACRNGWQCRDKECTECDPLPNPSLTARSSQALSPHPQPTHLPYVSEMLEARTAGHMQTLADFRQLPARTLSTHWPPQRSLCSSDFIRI

B1: Flag-SEMG2 expressed in HEK293 cells (pcDNA3-Flag-SEMG2) (ligand, not shown: small tags and cut ends)
chain: QKGGSKGQLPSGSSQFPHGQKGQHYFGQKDQQHTKSKGSFSIQHTYHVDINDHDWTRKSQQYDLNALHKATKSKQHLGGSQQLLNYKQEGRDHDKSKGHFHMIVIHHKGGQAHHGTQNPSQDQGNSPSGKGLSSQCSNTEKRLWVHGLSKEQASASGAQKGRTQGGSQSSYVLQTEELVVNKQQRETKNSHQNKGHYQNVVDVREEHSSKLQTSLHPAHQDRLQHGPKDIFTTQDELLVYNKNQHQTKNLSQDQEHGRKAHKISYPSSRTEERQLHHGEKSVQKDVSKGSISIQTEEKIHGKSQNQVTIHSQDQEHGHKENKISYQSSSTEERHLNCGEKGIQKGVSKGSISIQTEEQIHGKSQNQVRIPSQAQEYGHKENKISYQSSSTEERRLNSGEKDVQKGVSKGSISIQTEEKIHGKSQNQVTIPSQDQEHGHKENKMSYQSSSTEERRLNYGGKSTQKDVSQSSISFQIEKLVEGKSQIQTPNPNQDQWSGQNAKGKSGQSADSKQDLLSHEQKGRYKQESSESHNIVITEHEVAQDDHLTQQYNEDRNPIST
**Q.** B1 was tested. Which binding [1] did it give?
**A.** binds

**Q.** What about the binding [2] of the same binder?
**A.** binds

**Q.** What about the binding [3] of the same binder?
**A.** binds

**Q.** What about the binding [4] of the same binder?
**A.** binds

B2: CD27 protein (ELISA, form not stated) (receptor, UniProt P26842 21-192, looked up)
chain: TPAPKSCPERHYWAQGKLCCQMCEPGTFLVKDCDQHRKAAQCDPCIPGVSFSPDHHTRPHCESCRHCNSGLLVRNCTITANAECACRNGWQCRDKECTECDPLPNPSLTARSSQALSPHPQPTHLPYVSEMLEARTAGHMQTLADFRQLPARTLSTHWPPQRSLCSSDFIRI
**Q.** For B2, which binding [5] is on record?
**A.** binds

**Q.** How did the binding [6] turn out when FQIEKLVEGKSQIQTPNPNQDQWSGQNAKGKSGQSADSKQDLLSH (peptide, not shown: large carriers) [SEMG2-P5 fused with GFP] was run?
**A.** binds

**Q.** And the binding [7]?
**A.** binds

**Q.** And the binding [8]?
**A.** binds

**Q.** And the binding [9]?
**A.** binds

**Q.** What about the binding [10] of the same binder?
**A.** binds

B3: human SEMG2 full-length protein (ligand)
chain: QKGGSKGQLPSGSSQFPHGQKGQHYFGQKDQQHTKSKGSFSIQHTYHVDINDHDWTRKSQQYDLNALHKATKSKQHLGGSQQLLNYKQEGRDHDKSKGHFHMIVIHHKGGQAHHGTQNPSQDQGNSPSGKGLSSQCSNTEKRLWVHGLSKEQASASGAQKGRTQGGSQSSYVLQTEELVVNKQQRETKNSHQNKGHYQNVVDVREEHSSKLQTSLHPAHQDRLQHGPKDIFTTQDELLVYNKNQHQTKNLSQDQEHGRKAHKISYPSSRTEERQLHHGEKSVQKDVSKGSISIQTEEKIHGKSQNQVTIHSQDQEHGHKENKISYQSSSTEERHLNCGEKGIQKGVSKGSISIQTEEQIHGKSQNQVRIPSQAQEYGHKENKISYQSSSTEERRLNSGEKDVQKGVSKGSISIQTEEKIHGKSQNQVTIPSQDQEHGHKENKMSYQSSSTEERRLNYGGKSTQKDVSQSSISFQIEKLVEGKSQIQTPNPNQDQWSGQNAKGKSGQSADSKQDLLSHEQKGRYKQESSESHNIVITEHEVAQDDHLTQQYNEDRNPIST
**Q.** Which binding [11] does the source give for B3 here?
**A.** binds
